Values quoted from earlier work, collected in patent US20080160617A1, “AGENT FOR INDUCING EMBRYONIC STEM CELL TO ECTODERMAL CELL, METHOD FOR OBTAINING THE SAME, AND USE OF THE SAME” (KYOWA HAKKO KOGYO CO., LTD., priority 2001, published 2008).
For at least one compound, name, drawing or mass did not settle the structure.

Assays:
[1] = system: embryonic stem cells (EB); conditions: EB cultured for 4 days in the presence of retinoic acid, then trypsin and monolayer culturing; cited from earlier work
[2] = system: monolayer-cultured embryonic stem cells; conditions: 10^−7 mol/l retinoic acid, cited from earlier work

**Q.** With `CC1=C(/C=C/C(C)=C/C=C/C(C)=C/C(=O)O)C(C)(C)CCC1` [retinoic acid] as the compound, how does the “ratio of appearance of neuron-like cell generating action potential” value [1] read?
**A.** about 40%

**Q.** And the “cells expressing neurofilament-165 (protein level)” value ([2]; 4 to 5 days thereafter)?
**A.** less than 5%

**Q.** What about the “cells expressing GAP-43 (protein level)” value ([2]; 3 days thereafter) of the same compound?
**A.** about 50%
